From patent US20110207656A1
These are yes or no findings as the source states them, for the method shown. For some assays here: Binding seen in cells or lysates may run through a third protein. Some results given as binding are weak or reduced against the parent protein; the word gives no strength. For some assays here: Sequences can lack the tags named with a protein.

The chains behind the UniProt entries cited, without tags or fusion partners. Where a name states a change or a piece, a line headed by the entry shows the natural chain unless it says otherwise.
UniProt Q14790: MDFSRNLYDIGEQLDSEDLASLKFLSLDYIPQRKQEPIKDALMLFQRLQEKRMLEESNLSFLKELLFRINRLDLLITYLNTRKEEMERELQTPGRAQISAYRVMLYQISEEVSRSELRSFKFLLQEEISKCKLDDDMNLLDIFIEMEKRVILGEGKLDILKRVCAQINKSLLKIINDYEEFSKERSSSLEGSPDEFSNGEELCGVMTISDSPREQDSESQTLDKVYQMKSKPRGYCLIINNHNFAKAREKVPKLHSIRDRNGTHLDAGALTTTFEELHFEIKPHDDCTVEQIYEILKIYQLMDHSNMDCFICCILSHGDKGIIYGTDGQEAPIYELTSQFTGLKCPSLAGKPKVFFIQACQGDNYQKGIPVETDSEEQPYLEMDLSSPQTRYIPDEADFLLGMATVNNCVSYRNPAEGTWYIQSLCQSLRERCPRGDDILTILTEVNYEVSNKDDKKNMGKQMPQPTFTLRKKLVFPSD
UniProt P15941: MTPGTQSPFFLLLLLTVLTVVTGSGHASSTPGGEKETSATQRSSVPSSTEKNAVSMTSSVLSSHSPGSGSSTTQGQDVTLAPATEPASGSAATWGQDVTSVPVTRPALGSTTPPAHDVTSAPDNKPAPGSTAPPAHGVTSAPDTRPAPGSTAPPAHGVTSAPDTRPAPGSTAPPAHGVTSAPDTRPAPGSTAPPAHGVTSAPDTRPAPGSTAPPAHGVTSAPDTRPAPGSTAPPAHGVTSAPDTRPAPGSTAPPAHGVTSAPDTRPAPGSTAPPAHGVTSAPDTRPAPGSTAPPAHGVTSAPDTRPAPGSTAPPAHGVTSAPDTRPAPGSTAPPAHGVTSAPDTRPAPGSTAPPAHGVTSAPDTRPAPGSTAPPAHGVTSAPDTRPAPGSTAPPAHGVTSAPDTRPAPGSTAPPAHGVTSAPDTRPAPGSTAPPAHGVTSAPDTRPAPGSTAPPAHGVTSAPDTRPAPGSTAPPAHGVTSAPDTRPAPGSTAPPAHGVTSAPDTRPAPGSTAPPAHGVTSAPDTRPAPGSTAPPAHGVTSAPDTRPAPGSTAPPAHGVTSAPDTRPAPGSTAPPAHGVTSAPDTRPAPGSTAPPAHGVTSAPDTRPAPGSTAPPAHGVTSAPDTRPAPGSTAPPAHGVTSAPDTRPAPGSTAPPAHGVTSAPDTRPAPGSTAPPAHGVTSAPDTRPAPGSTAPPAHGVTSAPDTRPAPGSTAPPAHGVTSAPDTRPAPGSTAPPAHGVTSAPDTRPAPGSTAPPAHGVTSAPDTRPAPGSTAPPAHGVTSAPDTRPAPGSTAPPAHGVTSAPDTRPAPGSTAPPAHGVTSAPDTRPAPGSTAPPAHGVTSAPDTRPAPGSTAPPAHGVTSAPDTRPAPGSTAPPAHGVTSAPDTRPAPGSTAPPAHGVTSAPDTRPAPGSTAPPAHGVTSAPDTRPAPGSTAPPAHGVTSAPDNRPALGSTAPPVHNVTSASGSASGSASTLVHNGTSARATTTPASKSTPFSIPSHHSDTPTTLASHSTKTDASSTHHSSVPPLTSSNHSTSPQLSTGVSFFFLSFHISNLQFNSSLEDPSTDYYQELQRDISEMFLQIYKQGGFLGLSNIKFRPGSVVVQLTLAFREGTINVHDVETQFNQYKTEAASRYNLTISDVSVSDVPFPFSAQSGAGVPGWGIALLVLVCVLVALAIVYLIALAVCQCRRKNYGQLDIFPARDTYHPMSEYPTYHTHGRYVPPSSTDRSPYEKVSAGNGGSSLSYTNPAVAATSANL
UniProt Q13158: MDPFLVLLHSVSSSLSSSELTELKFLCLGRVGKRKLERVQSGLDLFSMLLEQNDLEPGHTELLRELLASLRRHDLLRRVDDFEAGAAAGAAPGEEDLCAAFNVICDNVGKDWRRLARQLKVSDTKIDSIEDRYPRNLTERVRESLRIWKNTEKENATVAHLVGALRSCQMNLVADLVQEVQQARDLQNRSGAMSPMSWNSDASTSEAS

Legend:
[1] = target: GST-caspase-8 fragment, amino acids 184-384 (includes caspase-8-p18) (human) (UniProt Q14790); test: GST pull-downs with purified proteins, immunoblot (legend of FIGS. 9A-9D)
[2] = target: GST-caspase-8 fragment, amino acids 184-384 (includes caspase-8-p18) (human) (UniProt Q14790); test: GST pull-down: His-MUC1-CD on GST-caspase-8 fragments, anti-His immunoblot (FIG. 9B)
GST-caspase-8 (human) = GST-caspase-8 (human) (UniProt Q14790); test: GST pull-down: His-MUC1-CD on GST-caspase-8 glutathione beads, anti-His immunoblot (FIG. 9A)
[3] = target: T1, GST-MUC1-CD(1-20) (human); test: GST pull-down: His-caspase-8(184-384) on GST-MUC1-CD fragments, anti-His immunoblot (FIG. 9D, upper)
T1 sequence: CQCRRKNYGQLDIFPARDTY

[4] = target: GST-MUC1-CD(1-72) (human) (UniProt P15941); test: GST pull-down: His-caspase-8-p18 fragments on GST-MUC1-CD glutathione beads, anti-His immunoblot (FIG. 9C)
[5] = target: GST-MUC1-CD(1-72) (human) (UniProt P15941); test: GST pull-down: purified FADD on GST-MUC1-CD glutathione beads, anti-FADD immunoblot (FIG. 12A)
GST-FADD (human) = GST-FADD (human) (UniProt Q13158); test: GST pull-down: purified MUC1-CD on GST-FADD glutathione beads, anti-MUC1-C immunoblot (FIG. 12B)
[6] = target: purified FADD protein (human) (UniProt Q13158); test: competition GST pull-down: MUC1-CD in increasing amounts against GST-caspase-8(1-183) for FADD (FIG. 12C)

“His-MUC1-CD(1-72) (from UniProt P15941 1184-1255)” was tested, and the binding [1] was “binds”, the binding [2] was “binds” and the binding (GST-caspase-8 (human)) was “binds”.

“His-caspase-8(184-384) (from UniProt Q14790 184-384) (enzyme)” was tested, and the binding [3] was “binds”.

In the case of “His-caspase-8-p18-B (amino acids 270-322) (from UniProt Q14790 253-305)”, the binding [4] was “binds”.

In the case of “purified FADD protein (from UniProt Q13158 1-208)”, the binding [5] was “binds”.

In the case of “purified MUC1-CD protein (from UniProt P15941 1184-1255)”, the binding (GST-FADD (human)) was “binds” and the binding [6] was “binds”.
